Test results: publication PMC10629583, “Specific inhibition of an anticancer target, polo-like kinase 1, by allosterically dismantling its mechanism of substrate recognition” (Proceedings of the National Academy of Sciences of the …, 2023)
No constants are given. Whether binding was seen depends on the method and setting. In cells and extracts the contact can be indirect. Some results given as binding are weak or reduced against the parent protein; the word gives no strength.

Sequences of proteins named here, by UniProt entry; tags and fusion partners are left off. A change or cut given only in a name is not applied to a line headed by its entry.
UniProt P53350: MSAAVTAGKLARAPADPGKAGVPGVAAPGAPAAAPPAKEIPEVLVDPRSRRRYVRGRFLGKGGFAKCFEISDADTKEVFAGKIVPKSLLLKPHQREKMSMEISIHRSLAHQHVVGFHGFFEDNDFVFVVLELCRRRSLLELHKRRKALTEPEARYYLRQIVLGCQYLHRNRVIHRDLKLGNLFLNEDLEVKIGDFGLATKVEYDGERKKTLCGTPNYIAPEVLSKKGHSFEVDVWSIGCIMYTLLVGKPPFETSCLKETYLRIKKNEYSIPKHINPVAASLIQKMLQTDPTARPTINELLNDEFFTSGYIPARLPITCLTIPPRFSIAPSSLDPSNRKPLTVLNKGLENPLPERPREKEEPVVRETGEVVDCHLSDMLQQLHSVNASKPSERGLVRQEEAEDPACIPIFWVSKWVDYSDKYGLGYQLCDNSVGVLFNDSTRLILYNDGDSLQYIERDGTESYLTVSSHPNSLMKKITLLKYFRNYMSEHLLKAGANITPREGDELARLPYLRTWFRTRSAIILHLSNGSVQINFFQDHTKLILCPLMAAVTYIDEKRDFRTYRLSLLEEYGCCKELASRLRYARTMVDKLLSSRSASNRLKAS
UniProt O60566: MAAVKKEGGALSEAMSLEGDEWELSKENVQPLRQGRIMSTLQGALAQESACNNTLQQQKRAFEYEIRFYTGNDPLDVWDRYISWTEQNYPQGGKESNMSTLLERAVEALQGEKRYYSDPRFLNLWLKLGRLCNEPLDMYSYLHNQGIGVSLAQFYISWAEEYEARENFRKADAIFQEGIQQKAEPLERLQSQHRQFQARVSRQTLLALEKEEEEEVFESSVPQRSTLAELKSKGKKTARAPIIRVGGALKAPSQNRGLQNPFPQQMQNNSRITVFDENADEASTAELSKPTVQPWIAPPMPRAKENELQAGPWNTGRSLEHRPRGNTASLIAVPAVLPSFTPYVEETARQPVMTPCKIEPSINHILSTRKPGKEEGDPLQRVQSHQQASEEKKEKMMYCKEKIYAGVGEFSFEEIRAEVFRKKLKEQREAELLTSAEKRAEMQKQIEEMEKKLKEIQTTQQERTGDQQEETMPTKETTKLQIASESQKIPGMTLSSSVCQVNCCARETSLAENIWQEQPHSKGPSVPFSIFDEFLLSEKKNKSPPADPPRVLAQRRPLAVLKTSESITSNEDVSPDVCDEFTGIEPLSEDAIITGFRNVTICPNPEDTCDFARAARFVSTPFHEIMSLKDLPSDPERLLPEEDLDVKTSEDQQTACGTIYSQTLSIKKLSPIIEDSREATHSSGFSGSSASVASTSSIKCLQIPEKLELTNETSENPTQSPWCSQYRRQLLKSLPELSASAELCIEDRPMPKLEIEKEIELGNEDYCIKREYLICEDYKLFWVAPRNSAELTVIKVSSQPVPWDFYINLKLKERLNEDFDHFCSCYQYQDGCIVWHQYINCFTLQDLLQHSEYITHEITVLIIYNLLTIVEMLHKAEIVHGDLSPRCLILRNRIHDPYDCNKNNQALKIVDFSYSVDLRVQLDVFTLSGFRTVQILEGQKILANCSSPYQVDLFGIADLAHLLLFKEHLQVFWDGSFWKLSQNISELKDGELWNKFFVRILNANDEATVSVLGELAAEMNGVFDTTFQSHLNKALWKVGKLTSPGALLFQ
UniProt P35222: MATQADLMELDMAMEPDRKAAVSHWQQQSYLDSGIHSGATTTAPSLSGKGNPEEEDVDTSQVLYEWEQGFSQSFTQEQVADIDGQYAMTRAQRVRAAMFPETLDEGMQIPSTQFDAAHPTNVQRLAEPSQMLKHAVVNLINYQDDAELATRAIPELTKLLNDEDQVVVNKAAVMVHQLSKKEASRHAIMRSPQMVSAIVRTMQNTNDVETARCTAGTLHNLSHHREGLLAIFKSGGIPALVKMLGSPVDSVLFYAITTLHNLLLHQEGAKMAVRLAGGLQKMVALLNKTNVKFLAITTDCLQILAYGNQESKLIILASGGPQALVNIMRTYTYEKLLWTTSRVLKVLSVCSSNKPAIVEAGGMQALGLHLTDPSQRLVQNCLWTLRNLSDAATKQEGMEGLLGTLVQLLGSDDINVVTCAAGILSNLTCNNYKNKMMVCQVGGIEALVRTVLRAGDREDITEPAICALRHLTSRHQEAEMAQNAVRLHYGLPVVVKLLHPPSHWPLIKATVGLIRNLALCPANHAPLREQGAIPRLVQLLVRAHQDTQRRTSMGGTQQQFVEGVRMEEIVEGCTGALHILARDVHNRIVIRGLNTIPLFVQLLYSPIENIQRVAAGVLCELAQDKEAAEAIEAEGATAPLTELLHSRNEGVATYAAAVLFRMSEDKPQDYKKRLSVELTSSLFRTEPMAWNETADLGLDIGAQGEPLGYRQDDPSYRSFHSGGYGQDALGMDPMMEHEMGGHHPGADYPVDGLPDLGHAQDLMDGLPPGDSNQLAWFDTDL

Legend:
[1] = target: Flag-Plk1 F559D mutant (human) (UniProt P53350); assay: co-IP; anti-Flag immunoprecipitation from HeLa cells stably expressing Flag-Plk1 WT or F559D, TBSN buffer (20 mM Tris-Cl pH 8.0, 150 mM NaCl, 0.5% NP-40); cells treated with 600 nM nocodazole 16 h and 300 nM okadaic acid 1.5 h, and with DMSO or 20 μM Allopole for 2 h; immunoblot
[2] = target: Flag-Plk1 (polo-like kinase 1), wild type (human) (UniProt P53350); assay: as above

| Substance | binding [1] | binding [2] |
| --- | --- | --- |
| phosphorylated BubR1 (from UniProt O60566 1-1050) | binds | – |
| β-catenin (from UniProt P35222 1-781) | – | binds |
